{
  "sequences": {"note": "Amino acid sequences for entries named in this document (tags omitted).", "UniProt P07437": "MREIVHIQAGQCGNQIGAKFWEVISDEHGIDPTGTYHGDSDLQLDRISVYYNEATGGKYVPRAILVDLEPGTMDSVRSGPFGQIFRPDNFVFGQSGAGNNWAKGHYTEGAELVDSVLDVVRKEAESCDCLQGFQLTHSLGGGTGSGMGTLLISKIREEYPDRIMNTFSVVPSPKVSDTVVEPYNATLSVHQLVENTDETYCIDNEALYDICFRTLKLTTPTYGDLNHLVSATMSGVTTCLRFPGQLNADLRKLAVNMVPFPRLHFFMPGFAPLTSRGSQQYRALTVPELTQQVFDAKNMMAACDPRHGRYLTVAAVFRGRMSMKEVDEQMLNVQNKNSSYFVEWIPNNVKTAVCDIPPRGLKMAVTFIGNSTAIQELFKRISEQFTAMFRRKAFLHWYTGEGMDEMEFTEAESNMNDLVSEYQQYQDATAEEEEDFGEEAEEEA"},
  "source": "paper PMC12663190",
  "biological_target": "T1, GFP-USP13 (from pLenti-CMV-Flag-USP13-GFP-Puro) (UniProt Q92995)",
  "T1 sequence": "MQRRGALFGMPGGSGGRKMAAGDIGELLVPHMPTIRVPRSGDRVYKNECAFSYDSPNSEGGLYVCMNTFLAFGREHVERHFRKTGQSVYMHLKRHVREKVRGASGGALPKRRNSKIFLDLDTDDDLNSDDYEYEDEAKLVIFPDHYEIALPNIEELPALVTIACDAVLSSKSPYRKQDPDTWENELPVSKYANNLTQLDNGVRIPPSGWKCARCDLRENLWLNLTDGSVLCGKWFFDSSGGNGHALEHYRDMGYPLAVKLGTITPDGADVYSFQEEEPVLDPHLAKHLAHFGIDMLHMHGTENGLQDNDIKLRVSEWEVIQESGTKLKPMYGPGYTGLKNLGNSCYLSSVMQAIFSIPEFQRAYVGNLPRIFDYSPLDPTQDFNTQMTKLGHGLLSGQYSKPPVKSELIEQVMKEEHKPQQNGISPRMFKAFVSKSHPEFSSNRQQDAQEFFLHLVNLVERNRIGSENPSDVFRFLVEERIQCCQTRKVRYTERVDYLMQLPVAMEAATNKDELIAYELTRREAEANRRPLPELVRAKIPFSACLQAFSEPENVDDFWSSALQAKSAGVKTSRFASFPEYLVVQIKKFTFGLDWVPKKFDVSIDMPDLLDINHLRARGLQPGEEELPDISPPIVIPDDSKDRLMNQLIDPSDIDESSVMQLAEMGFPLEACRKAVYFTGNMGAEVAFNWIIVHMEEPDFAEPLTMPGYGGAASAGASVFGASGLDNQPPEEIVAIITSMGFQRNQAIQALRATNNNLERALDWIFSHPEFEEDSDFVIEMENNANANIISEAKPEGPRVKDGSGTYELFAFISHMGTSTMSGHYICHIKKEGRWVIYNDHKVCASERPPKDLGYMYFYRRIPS",
  "test": "affinity purification with mass spectrometry; HEK293T cells lysed 48 h after transfection; co-IP with USP13 pull-down; on-bead trypsin digestion; LC-MS/MS",
  "note": "These are yes or no findings as the source states them, for the method shown. Binding seen in cells or lysates may run through a third protein. Here binding means that the protein was enriched with, or labelled near, the bait; the list need not be complete. Sequences can lack the tags named with a protein.",
  "data": [
    {"substance": "TUBB (from UniProt P07437 1-444)", "values": [
      {"measurement": "binding", "result": "binds"}
    ]}
  ]
}
